The experiment concerns the target T1, FLAG-CTIF-WT (UniProt O43310).
T1 sequence: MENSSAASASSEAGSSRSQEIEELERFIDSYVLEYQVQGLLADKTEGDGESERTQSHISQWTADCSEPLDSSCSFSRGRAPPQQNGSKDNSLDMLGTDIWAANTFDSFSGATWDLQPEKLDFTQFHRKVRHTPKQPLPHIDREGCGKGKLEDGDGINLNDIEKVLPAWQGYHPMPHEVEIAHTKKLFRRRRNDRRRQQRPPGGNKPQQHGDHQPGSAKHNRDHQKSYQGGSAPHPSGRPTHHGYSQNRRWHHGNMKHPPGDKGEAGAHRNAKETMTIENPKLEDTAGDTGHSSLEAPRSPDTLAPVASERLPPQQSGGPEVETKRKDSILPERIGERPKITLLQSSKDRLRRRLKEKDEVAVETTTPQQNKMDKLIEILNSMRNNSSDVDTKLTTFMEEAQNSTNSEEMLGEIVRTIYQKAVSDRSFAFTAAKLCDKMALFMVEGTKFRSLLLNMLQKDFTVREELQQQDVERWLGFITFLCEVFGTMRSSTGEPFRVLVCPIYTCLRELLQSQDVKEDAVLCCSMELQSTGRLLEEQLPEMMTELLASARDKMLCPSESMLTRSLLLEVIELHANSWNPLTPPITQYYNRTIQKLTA
Put plainly: affinity purification with mass spectrometry; immunoprecipitate of FLAG-CTIF-WT from HEK293T cells, SDS-PAGE, silver staining, bands excised, LC-MS/MS.

By UniProt entry, the sequences of proteins in these tests, tags left out.
UniProt P68104: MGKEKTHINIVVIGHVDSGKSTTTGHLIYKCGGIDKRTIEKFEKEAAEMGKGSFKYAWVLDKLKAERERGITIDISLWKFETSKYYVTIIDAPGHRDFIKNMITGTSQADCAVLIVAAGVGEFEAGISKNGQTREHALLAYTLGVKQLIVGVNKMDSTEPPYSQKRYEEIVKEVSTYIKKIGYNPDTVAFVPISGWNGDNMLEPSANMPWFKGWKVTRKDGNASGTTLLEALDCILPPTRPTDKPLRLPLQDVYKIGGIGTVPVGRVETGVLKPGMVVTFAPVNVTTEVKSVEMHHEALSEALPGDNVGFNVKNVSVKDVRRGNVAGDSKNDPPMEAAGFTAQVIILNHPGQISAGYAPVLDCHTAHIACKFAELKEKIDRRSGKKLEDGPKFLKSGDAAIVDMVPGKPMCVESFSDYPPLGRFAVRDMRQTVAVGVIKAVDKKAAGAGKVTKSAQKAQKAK

These are yes or no findings as the source states them, for the method shown. In cells and extracts the contact can be indirect. A yes stands for co-enrichment or nearness to the bait. Other partners may have been found. Sequences can lack the tags named with a protein.

For the substance “eukaryotic translation elongation factor 1 alpha 1 (eEF1A1), endogenous (from UniProt P68104 1-462)”, the binding entry is “binds”.
